# According to paper PMC10641524:
# Protein sequences, listed by entry. Tags and fused reporters are not part of them.
# UniProt Q9NP72: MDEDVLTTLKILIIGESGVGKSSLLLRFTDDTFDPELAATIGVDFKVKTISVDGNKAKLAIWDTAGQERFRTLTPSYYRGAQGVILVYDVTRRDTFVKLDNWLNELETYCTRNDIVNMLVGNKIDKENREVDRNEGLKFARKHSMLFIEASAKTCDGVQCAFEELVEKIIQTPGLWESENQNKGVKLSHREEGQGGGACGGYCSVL
# T1: BioID2(Gly40Ser)-SEC22A (human) (UniProt Q96IW7)
# T1 sequence: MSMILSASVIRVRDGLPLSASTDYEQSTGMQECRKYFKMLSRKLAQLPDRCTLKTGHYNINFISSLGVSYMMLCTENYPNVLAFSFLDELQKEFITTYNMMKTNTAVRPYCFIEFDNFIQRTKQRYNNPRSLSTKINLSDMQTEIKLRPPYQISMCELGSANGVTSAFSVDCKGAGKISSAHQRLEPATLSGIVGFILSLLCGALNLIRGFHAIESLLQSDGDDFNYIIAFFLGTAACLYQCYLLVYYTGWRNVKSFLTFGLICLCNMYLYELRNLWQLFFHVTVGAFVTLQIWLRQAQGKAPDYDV
# What was measured:
# [1] = biological target: T1, BioID2(Gly40Ser)-SEC22A (human); assay: proximity labelling; reciprocal BioID: BioID2(Gly40Ser)-SEC22A transiently expressed in HeLa cells (WT compared with RAB3GAP-null and RAB18-null), 50 uM biotin 6 h; streptavidin Dynabeads, label-free quantitative mass spectrometry
# [2] = biological target: BirA*-RAB18 (UniProt Q9NP72); assay: proximity labelling; independent BioID experiment with BirA*-RAB18 in WT HeLa cells; streptavidin-purified samples read by Western blotting
# [3] = biological target: BirA*-RAB18 (UniProt Q9NP72); assay: proximity labelling; independent BioID experiment with BirA*-RAB18 in RAB3GAP1-null HeLa cells; streptavidin-purified samples read by Western blotting
# [4] = biological target: BirA*-RAB18 (UniProt Q9NP72); assay: proximity labelling; BioID: BirA*-RAB18 transiently expressed in WT HeLa cells (compared with RAB3GAP1-, RAB3GAP2- and TRAPPC9-null cells), 50 uM biotin 24 h; biotinylated proteins purified on streptavidin Dynabeads, label-free quantitative mass spectrometry; hits are proteins with RAB3GAP-null:WT intensity ratio <=0.5
# [5] = biological target: BirA*-RAB18, Q9NP72; assay: proximity labelling; independent BioID experiment with BirA*-RAB18 in WT HeLa cells; streptavidin-purified samples read by Western blotting; details: remark: other sources report otherwise
# [6] = biological target: BirA*-RAB18, Q9NP72; assay: proximity labelling; BioID: BirA*-RAB18 transiently expressed in WT HeLa cells (compared with RAB3GAP1-, RAB3GAP2- and TRAPPC9-null cells), 50 uM biotin 24 h; biotinylated proteins purified on streptavidin Dynabeads, label-free quantitative mass spectrometry; hits are proteins with RAB3GAP-null:WT intensity ratio <=0.5; details: remark: other sources report otherwise
Molecule,binding [2],binding [4],other results
endogenous RAB18 (from UniProt Q9NP72 1-206),,,binding [1]: binds
"STX18 (protein, UniProt Q9P2W9 1-335) MAVDITLLFRASVKTVKTRNKALGVAVGGGVDGSRDELFRRSPRPKGDFSSRAREVISHIGKLRDFLLEHRKDYINAYSHTMSEYGRMTDTERDQIDQDAQIFMRTCSEAIQQLRTEAHKEIHSQQVKEHRTAVLDFIEDYLKRVCKLYSEQRAIRVKRVVDKKRLSKLEPEPNTKTRESTSSEKVSQSPSKDSEENPATEERPEKILAETQPELGTWGDGKGEDELSPEEIQMFEQENQRLIGEMNSLFDEVRQIEGRVVEISRLQEIFTEKVLQQEAEIDSIHQLVVGATENIKEGNEDIREAIKNNAGFRVWILFFLVMCSFSLLFLDWYDS",binds,binds,
"SCFD2 (protein, UniProt Q8WU76 1-684) MSASGVLSFTQQGWEQVLAKVKRAVVYLDAACAESLHWGCGSTRLLEAVGGPDCHLREFEPDAIGGGAKQPKAVFVLSCLLKGRTVEILRDIICRSHFQYCVVVTTVSHAVHLTANHVPAAAAAEMEGQQPVFEQLEEKLCEWMGNMNYTAEVFHVPLLLAPVAPHFALTPAFASLFPLLPQDVHLLNSARPDKRKLGSLGDVDSTTLTPELLLQIRCLVSGLSSLCEHLGVREECFAVGSLSQVIAADLANYAPAKNRKKTAAGRASVVFVDRTLDLTGAVGHHGDNLVEKIISALPQLPGHTNDVMVNMIALTALHTEEENYNVVAPGCLSQSSDTTAKALWEALLNTKHKEAVMEVRRHLVEAASRENLPIKMSMGRVTPGQLMSYIQLFKNNLKALMNHCGLLQLGLATAQTLKHPQTAKWDNFLAFERLLLQSIGESAMSVVLNQLLPMIKPVTQRTNEDYSPEELLILLIYIYSVTGELTVDKDLCEAEEKVKKALAQVFCEESGLSPLLQKITDWDSSINLTFHKSKIAVDELFTSLRDIAGARSLLKQFKSVYVPGNHTHQASYKPLLKQVVEEIFHPERPDSVDIEHMSSGLTDLLKTGFSMFMKVSRPHPSDYPLLILFVVGGVTVSEVKMVKDLVASLKPGTQVIVLSTRLLKPLNIPELLFATDRLHPDLGF",,binds,
"SPG20, Q8N0X7 1-666 (protein) MEQEPQNGEPAEIKIIREAYKKAFLFVNKGLNTDELGQKEEAKNYYKQGIGHLLRGISISSKESEHTGPGWESARQMQQKMKETLQNVRTRLEILEKGLATSLQNDLQEVPKLYPEFPPKDMCEKLPEPQSFSSAPQHAEVNGNTSTPSAGAVAAPASLSLPSQSCPAEAPPAYTPQAAEGHYTVSYGTDSGEFSSVGEEFYRNHSQPPPLETLGLDADELILIPNGVQIFFVNPAGEVSAPSYPGYLRIVRFLDNSLDTVLNRPPGFLQVCDWLYPLVPDRSPVLKCTAGAYMFPDTMLQAAGCFVGVVLSSELPEDDRELFEDLLRQMSDLRLQANWNRAEEENEFQIPGRTRPSSDQLKEASGTDVKQLDQGNKDVRHKGKRGKRAKDTSSEEVNLSHIVPCEPVPEEKPKELPEWSEKVAHNILSGASWVSWGLVKGAEITGKAIQKGASKLRERIQPEEKPVEVSPAVTKGLYIAKQATGGAAKVSQFLVDGVCTVANCVGKELAPHVKKHGSKLVPESLKKDKDGKSPLDGAMVVAASSVQGFSTVWQGLECAAKCIVNNVSAETVQTVRYKYGYNAGEATHHAVDSAVNVGVTAYNINNIGIKAMVKKTATQTGHTLLEDYQIVDNSQRENQEGAANVNVRGEKDEQTKEVKEAKKKDK",,,binding [5]: binds; binding [6]: binds
"SEC22A (endogenous) (protein, UniProt Q96IW7 1-307) MSMILSASVIRVRDGLPLSASTDYEQSTGMQECRKYFKMLSRKLAQLPDRCTLKTGHYNINFISSLGVSYMMLCTENYPNVLAFSFLDELQKEFITTYNMMKTNTAVRPYCFIEFDNFIQRTKQRYNNPRSLSTKINLSDMQTEIKLRPPYQISMCELGSANGVTSAFSVDCKGAGKISSAHQRLEPATLSGIVGFILSLLCGALNLIRGFHAIESLLQSDGDDFNYIIAFFLGTAACLYQCYLLVYYTGWRNVKSFLTFGLICLCNMYLYELRNLWQLFFHVTVGAFVTLQIWLRQAQGKAPDYDV",,binds,

# Further lines, with some results ahead:
binding [2],binding [4],Molecule,other results
binds,binds,"RAB3GAP2 (protein, UniProt Q9H2M9 1-1393) MACSIVQFCYFQDLQAARDFLFPHLREEILSGALRRDPSKSTDWEDDGWGAWEENEPQEPEEEGNTCKTQKTSWLQDCVLSLSPTNDLMVIAREQKAVFLVPKWKYSDKGKEEMQFAVGWSGSLNVEEGECVTSALCIPLASQKRSSTGRPDWTCIVVGFTSGYVRFYTENGVLLLAQLLNEDPVLQLKCRTYEIPRHPGVTEQNEELSILYPAAIVTIDGFSLFQSLRACRNQVAKAAASGNENIQPPPLAYKKWGLQDIDTIIDHASVGIMTLSPFDQMKTASNIGGFNAAIKNSPPAMSQYITVGSNPFTGFFYALEGSTQPLLSHVALAVASKLTSALFNAASGWLGWKSKHEEEAVQKQKPKVEPATPLAVRFGLPDSRRHGESICLSPCNTLAAVTDDFGRVILLDVARGIAIRMWKGYRDAQIGWIQTVEDLHERVPEKADFSPFGNSQGPSRVAQFLVIYAPRRGILEVWSTQQGPRVGAFNVGKHCRLLYPGYKIMGLNNVTSQSWQPQTYQICLVDPVSGSVKTVNVPFHLALSDKKSERAKDMHLVKKLAALLKTKSPNLDLVETEIKELILDIKYPATKKQALESILASERLPFSCLRNITQTLMDTLKSQELESVDEGLLQFCANKLKLLQLYESVSQLNSLDFHLDTPFSDNDLALLLRLDEKELLKLQALLEKYKQENTRTNVRFSDDKDGVLPVKTFLEYLEYEKDVLNIKKISEEEYVALGSFFFWKCLHGESSTEDMCHTLESAGLSPQLLLSLLLSVWLSKEKDILDKPQSICCLHTMLSLLSKMKVAIDETWDSQSVSPWWQQMRTACIQSENNGAALLSAHVGHSVAAQISNNMTEKKFSQTVLGADSEALTDSWEALSLDTEYWKLLLKQLEDCLILQTLLHSKGNTQTSKVSSLQAEPLPRLSVKKLLEGGKGGIADSVAKWIFKQDFSPEVLKLANEERDAENPDEPKEGVNRSFLEVSEMEMDLGAIPDLLHLAYEQFPCSLELDVLHAHCCWEYVVQWNKDPEEARFFVRSIEHLKQIFNAHVQNGIALMMWNTFLVKRFSAATYLMDKVGKSPKDRLCRRDVGMSDTAMTSFLGSCLDLLQILMEADVSRDEIQVPVLDTEDAWLSVEGPISIVELALEQKHIHYPLVEHHSILCSILYAVMRFSLKTVKPLSLFDSKGKNAFFKDLTSIQLLPSGEMDPNFISVRQQFLLKVVSAAVQAQHSATKVKDPTEEATPTPFGKDQDWPALAVDLAHHLQVSEDVVRRHYVGELYNYGVDHLGEEAILQVHDKEVLASQLLVLTGQRLAHALLHTQTKEGMELLARLPPTLCTWLKAMDPQDLQNTEVPIATTAKLVNKVIELLPEKHGQYGLALHLIEAVEAISLPSL",binding [3]: no binding (only in RAB3GAP1-null cells)
binds,binds,"ZW10 (protein, UniProt O43264 1-779) MASFVTEVLAHSGRLEKEDLGTRISRLTRRVEEIKGEVCNMISKKYSEFLPSMQSAQGLITQVDKLSEDIDLLKSRIESEVRRDLHVSTGEFTDLKQQLERDSVVLSLLKQLQEFSTAIEEYNCALTEKKYVTGAQRLEEAQKCLKLLKSRKCFDLKILKSLSMELTIQKQNILYHLGEEWQKLIVWKFPPSKDTSSLESYLQTELHLYTEQSHKEEKTPMPPISSVLLAFSVLGELHSKLKSFGQMLLKYILRPLASCPSLHAVIESQPNIVIIRFESIMTNLEYPSPSEVFTKIRLVLEVLQKQLLDLPLDTDLENEKTSTVPLAEMLGDMIWEDLSECLIKNCLVYSIPTNSSKLQQYEEIIQSTEEFENALKEMRFLKGDTTDLLKYARNINSHFANKKCQDVIVAARNLMTSEIHNTVKIIPDSKINVPELPTPDEDNKLEVQKVSNTQYHEVMNLEPENTLDQHSFSLPTCRISESVKKLMELAYQTLLEATTSSDQCAVQLFYSVRNIFHLFHDVVPTYHKENLQKLPQLAAIHHNNCMYIAHHLLTLGHQFRLRLAPILCDGTATFVDLVPGFRRLGTECFLAQMRAQKGELLERLSSARNFSNMDDEENYSAASKAVRQVLHQLKRLGIVWQDVLPVNIYCKAMGTLLNTAISEVIGKITALEDISTEDGDRLYSLCKTVMDEGPQVFAPLSEESKNKKYQEEVPVYVPKWMPFKELMMMLQASLQEIGDRWADGKGPLAAAFSSSEVKALIRALFQNTERRAAALAKIK",binding [3]: no binding (only in RAB3GAP1-null cells)

# No constants are given. Whether binding was seen depends on the method and setting. Binding seen in cells or lysates may run through a third protein. A yes stands for co-enrichment or nearness to the bait. Other partners may have been found. For some of these results: A no says only that the protein was not detected with the bait.
